Assay in all cases: log2 fold change, soluble protein after heating vs DMSO (PISA); higher = thermal stabilisation; K562 lysate, 10 uM; active = over 0.2 and 3.5 SD of the protein, either way, in both replicates (recomputed)
Compound in one test: C#Cc1cccc(Nc2ncnc3cc(OCCOC)c(OCCOC)cc23)c1 [erlotinib]
The method in brief:
(§1)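 Quantification was by TMTpro 16plex LC-MS/MS with equalised channel sums, applied to the supernatant after 21,000xg for 90 min. Samples were crude K562 extract at 1 mg/mL protein in PBS pH 7.4 with 1 mM MgCl2, treated with 10 μM compound for 30 min, heated for 3 min across 48°C-58°C, pooled and brought to 0.5% NP-40 at 4°C. Values are log-two fold changes in thermal stability relative to solvent controls, from duplicates.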

The chains behind the UniProt entries cited, without tags or fusion partners. Where a name states a change or a piece, a line headed by the entry shows the natural chain unless it says otherwise.
UniProt Q9NZJ7, whole entry, looked up: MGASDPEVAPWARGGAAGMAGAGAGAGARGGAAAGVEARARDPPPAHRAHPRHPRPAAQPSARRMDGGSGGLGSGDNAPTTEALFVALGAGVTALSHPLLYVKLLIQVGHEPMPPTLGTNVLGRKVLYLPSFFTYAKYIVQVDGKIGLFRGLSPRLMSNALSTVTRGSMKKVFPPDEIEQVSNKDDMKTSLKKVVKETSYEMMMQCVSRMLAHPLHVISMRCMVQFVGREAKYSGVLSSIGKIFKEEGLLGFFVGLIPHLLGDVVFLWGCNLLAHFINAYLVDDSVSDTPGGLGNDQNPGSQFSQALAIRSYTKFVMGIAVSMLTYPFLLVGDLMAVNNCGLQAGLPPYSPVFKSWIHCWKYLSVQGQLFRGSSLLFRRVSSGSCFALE
UniProt Q13615: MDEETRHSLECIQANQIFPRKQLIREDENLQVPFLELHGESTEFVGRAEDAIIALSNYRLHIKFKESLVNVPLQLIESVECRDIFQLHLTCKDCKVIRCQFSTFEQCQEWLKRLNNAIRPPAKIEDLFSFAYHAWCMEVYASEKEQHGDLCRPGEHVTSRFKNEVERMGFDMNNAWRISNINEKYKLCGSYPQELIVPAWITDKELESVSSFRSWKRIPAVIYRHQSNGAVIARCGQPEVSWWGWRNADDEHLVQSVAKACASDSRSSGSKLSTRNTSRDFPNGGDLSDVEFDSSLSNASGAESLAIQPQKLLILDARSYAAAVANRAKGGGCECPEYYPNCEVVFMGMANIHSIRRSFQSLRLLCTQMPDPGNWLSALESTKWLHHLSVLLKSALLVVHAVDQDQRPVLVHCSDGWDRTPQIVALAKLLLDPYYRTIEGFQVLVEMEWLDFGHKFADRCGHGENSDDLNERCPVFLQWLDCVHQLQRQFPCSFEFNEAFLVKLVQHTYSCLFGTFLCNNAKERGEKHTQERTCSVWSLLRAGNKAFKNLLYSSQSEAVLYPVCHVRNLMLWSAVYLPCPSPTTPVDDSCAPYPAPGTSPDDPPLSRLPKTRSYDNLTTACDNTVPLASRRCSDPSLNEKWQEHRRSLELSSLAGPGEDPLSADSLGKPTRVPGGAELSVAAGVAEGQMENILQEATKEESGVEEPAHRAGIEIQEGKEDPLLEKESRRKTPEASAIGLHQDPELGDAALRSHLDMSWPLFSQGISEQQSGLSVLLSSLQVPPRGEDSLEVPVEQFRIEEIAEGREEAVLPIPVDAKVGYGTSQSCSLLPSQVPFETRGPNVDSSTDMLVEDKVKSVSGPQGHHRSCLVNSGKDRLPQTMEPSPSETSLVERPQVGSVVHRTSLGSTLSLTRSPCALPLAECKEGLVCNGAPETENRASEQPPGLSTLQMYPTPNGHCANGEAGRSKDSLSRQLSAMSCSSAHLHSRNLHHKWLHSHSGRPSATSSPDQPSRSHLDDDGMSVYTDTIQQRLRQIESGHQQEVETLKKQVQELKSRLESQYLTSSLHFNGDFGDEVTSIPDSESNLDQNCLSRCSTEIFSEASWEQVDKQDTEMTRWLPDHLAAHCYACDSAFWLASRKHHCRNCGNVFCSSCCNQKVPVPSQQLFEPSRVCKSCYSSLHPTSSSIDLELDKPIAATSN
UniProt Q96EF0: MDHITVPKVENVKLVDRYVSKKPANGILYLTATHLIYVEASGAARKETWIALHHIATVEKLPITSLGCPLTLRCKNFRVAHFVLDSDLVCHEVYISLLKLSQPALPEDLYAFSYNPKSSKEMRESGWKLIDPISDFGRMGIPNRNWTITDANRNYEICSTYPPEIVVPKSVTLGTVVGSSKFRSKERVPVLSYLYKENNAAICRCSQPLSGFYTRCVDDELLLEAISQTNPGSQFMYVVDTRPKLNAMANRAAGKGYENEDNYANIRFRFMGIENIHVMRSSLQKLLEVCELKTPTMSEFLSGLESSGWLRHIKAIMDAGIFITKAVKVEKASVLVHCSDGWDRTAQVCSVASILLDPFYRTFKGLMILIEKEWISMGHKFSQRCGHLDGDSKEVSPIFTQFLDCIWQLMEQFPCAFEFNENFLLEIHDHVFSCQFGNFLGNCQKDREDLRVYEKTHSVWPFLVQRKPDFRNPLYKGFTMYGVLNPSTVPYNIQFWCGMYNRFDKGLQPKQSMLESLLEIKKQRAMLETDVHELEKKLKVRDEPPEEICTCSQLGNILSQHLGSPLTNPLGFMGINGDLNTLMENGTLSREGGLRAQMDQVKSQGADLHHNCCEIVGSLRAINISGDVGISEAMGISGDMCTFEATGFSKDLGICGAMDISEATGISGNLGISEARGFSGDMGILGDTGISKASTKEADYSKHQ
UniProt Q49AM1: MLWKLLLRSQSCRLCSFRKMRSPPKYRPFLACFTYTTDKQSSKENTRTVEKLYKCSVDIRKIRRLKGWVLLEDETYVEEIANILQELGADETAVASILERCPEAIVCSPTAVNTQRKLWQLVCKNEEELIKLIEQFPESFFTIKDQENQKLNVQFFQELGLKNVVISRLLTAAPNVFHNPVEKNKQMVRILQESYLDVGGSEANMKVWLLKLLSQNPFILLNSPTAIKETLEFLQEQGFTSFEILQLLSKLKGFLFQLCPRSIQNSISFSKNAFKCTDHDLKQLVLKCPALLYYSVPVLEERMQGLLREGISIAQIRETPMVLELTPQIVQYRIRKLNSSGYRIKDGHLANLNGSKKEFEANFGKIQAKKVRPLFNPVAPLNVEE
UniProt Q9H2K0, whole entry, looked up: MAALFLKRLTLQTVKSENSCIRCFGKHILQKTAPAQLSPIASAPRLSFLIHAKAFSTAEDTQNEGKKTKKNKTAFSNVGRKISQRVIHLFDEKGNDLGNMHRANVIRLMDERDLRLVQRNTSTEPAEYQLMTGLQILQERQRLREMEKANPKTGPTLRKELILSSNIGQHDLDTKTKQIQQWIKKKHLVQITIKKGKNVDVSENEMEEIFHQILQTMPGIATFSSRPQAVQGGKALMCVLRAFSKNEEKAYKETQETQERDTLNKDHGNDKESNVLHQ
UniProt Q9HCI7: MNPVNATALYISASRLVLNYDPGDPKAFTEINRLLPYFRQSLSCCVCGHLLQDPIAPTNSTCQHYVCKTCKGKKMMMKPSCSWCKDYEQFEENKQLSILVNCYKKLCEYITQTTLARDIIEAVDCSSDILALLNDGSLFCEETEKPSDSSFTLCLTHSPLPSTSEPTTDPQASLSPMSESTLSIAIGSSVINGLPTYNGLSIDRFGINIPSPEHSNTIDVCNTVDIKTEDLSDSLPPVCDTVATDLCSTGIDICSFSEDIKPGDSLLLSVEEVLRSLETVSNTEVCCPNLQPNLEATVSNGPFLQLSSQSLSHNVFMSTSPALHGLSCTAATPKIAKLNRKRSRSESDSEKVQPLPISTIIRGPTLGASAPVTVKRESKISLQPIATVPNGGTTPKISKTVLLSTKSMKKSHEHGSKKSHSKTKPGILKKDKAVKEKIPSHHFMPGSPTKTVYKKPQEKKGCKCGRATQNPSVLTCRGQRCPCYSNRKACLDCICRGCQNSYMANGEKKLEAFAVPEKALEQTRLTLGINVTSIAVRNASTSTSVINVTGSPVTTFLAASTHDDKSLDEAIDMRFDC
UniProt P00414, whole entry, looked up: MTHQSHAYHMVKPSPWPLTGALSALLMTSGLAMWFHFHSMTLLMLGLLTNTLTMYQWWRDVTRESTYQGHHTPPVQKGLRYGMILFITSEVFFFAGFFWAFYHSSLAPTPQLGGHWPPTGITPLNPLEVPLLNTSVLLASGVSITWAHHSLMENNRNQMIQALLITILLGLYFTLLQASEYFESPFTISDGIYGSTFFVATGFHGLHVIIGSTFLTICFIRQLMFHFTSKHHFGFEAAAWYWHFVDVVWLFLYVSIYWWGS

Compound in test [1]: C/C(=N\NC(=O)C1=CC(=CC=C1)S(=O)(=O)N2CCOCC2)/C3=C(C=CC(=C3)Cl)O
The method, boiled down:
as §1

Compound in test [2]: C1=CC(=CC=C1C2=NC3=C(N2)C=C(C=C3)C(=O)N)OC4=CC=C(C=C4)Cl
The method in brief:
as §1

Compound in test [3]: C1=CC2=C(C=CC(=C2)/C=C\3/C(=O)NC(=NCC4=CC=CS4)S3)N=C1
The method in brief: as §1

Compound in test [4]: C1=CC2=NC=CN=C2C=C1/C=C/3\C(=O)NC(=O)S3
The method in brief:
as §1

Compound in test [5]: C1=CC=C(C=C1)C2=NC(=C(N2)C3=CC=NC=C3)C4=CC(=C(C=C4)Cl)O
The method in brief: as §1

Compound in test [6]: C1=CC=C2C(=C1)C3=NNC4=CC=CC(=C43)C2=O
The method in brief: as §1

Compound in test [7]: C1CCN(C1)C(=O)NC2=CC=CC(=C2)NC3=NC=C(C(=N3)NCCC4=CN=CN4)Br
The method in brief: as §1

Compound in test [8]: C1CN(CCC1(CC2=CC=C(C=C2)Cl)N)C3=NC=NC4=C3C=CN4
The method in brief: as §1

Compound in the next test: C1COCCN1CCN2C3=CC=CC=C3N=C2NC(=O)C4=CC(=CC=C4)[N+](=O)[O-] [IRAK-1-4 Inhibitor I]
The method, boiled down:
as §1

Compound in another test: C=CC(=O)N1CCC[C@@H](n2nc(-c3ccc(Oc4ccccc4)cc3)c3c(N)ncnc32)C1 [ibrutinib]
The method, boiled down:
as §1

Compound in test [9]: CC(=O)c1cnc2ccc(-c3cc(Cl)c(O)c(Cl)c3)nc2c1N[C@H]1CC[C@H](CN(C)C)CC1
The method, boiled down:
as §1

Compound in the next test: CC(C)(C)Cn1c(N)nc2ccc(-c3[nH]c(C(C)(C)C)nc3-c3ccc(F)cc3)nc21 [ralimetinib]
The method in brief:
as §1

Compound in test [10]: CC(C)(O)CC(=O)NCCn1ccc2ncnc(Nc3ccc(Oc4cccc(C(F)(F)F)c4)c(Cl)c3)c21
The method in brief: as §1

Compound in test [11]: CC(C)C1=C2N=C(C=C(N2N=C1)NCC3=CC=CC=C3)NCCCCCCN
The method in brief: as §1

Compound in test [12]: CC1=C(C(CC(=O)N1)C2=CC=C(C=C2)C(F)(F)F)C(=O)NC3=C(C=C4C(=C3)C=NN4)F
The method, boiled down: as §1

Compound in test [13]: CC1=C(C2=C(C=C1)C(=O)C3=CC=CC=C3N2CCCN)C
The method, boiled down:
as §1

Compound in test [14]: CC1=C(C=C(C=C1)NC(=O)C2=CC(=CC=C2)C(C)(C)C#N)NC3=CC4=C(C=C3)N=CN(C4=O)C
The method in brief: as §1

Compound in test [15]: CC1=C(C=C(C=C1)NC(=O)C2=CC(=CC=C2)N(C)C)NC(=O)C3=CC=C(C=C3)O
The method in brief:
as §1

Compound in test [16]: CC1=CC=C(C=C1)SC2=C3C=C(SC3=CN=C2)C(=O)N
The method in brief:
as §1

The other results are listed elsewhere or left out.

Take MTCH1 (UniProt Q9NZJ7): the log2 fold change with erlotinib was inactive: -0.015; in test [1] it was inactive: 0.032; in test [2], inactive: -0.026; in test [3], inactive: 0.006; in test [4], inactive: -0.007; in [5], inactive: 0.007. The log2 fold change in test [6] is inactive: 0.002; in [7] it was inactive: 0.013; in test [8], inactive: 0.006; in the test with IRAK-1-4 Inhibitor I it was inactive: -0.024; in the test with ibrutinib, inactive: -0.008; in [9], inactive: -0.032. For the same target, the log2 fold change with ralimetinib was inactive: 0.025; in test [10], inactive: 0.043; in test [11], inactive: 0.032; in test [12] it was inactive: -0.014; in test [13] it was inactive: -0.059; in [14], inactive: -0.015. Besides, the log2 fold change was inactive: -0.039 in test [15] and inactive: 0.015 in [16].
As for MRPL35 (UniProt Q9NZE8), the log2 fold change in the test with erlotinib is inactive: -0.005; in [1] it was inactive: -0.237; in [2], inactive: -0.025; in test [3], active: 0.296; in test [4], inactive: 0.012; in test [5], inactive: -0.011. The log2 fold change in [6] is inactive: -0.133; in the test with IRAK-1-4 Inhibitor I, inactive: -0.041; with ibrutinib, inactive: -0.019; in test [9], inactive: -0.014; with ralimetinib, inactive: 0.041; in test [10], inactive: 0.047. Besides, the log2 fold change in test [11] was inactive: 0.013; in [12], inactive: -0.012; in test [13], inactive: -0.108; in test [14], inactive: -0.032; in [15], inactive: 0.032; in test [16], inactive: 0.01.
With MRPS18C (UniProt Q9Y3D5), the log2 fold change with erlotinib was inactive: -0.004; in test [1], inactive: -0.853; in [2] it was inactive: 0.02; in [3], inactive: -0.086; in test [4], inactive: -0.002; in [5] it was inactive: -0.023. In addition, the log2 fold change in test [6] is inactive: 0.022; in test [7] it was inactive: 0.006; in test [8], inactive: 0.049; with IRAK-1-4 Inhibitor I, inactive: 0.147; with ibrutinib, inactive: 0.041; in test [9] it was inactive: 0.058. The log2 fold change was inactive: 0.028 with ralimetinib; inactive: -0.007 in test [10]; inactive: 0.011 in [11]; inactive: -0.001 in test [12]; inactive: 0.027 in [13]; inactive: -0.005 in test [14]. The log2 fold change in test [15] is inactive: -0.041; in test [16], inactive: -0.072.
As for MTMR3 (UniProt Q13615), the log2 fold change in the test with erlotinib was inactive: 0.031; in [1], inactive: 0.008; in test [2] it was inactive: 0.033; in [3], inactive: -0.029; in test [4] it was inactive: -0.002; in test [5] it was inactive: -0.015. For the same target, the log2 fold change was inactive: -0.007 in test [6]; inactive: -0.076 in test [7]; inactive: 0.037 in [8]; inactive: -0.011 with IRAK-1-4 Inhibitor I; inactive: -0.031 with ibrutinib; inactive: -0.013 in test [9]. The log2 fold change with ralimetinib was inactive: 0.059; in test [10], inactive: 0.019; in test [11], inactive: -0.02; in test [12] it was inactive: 0.099; in test [13], inactive: 0.02; in [14], inactive: 0.009. Further, the log2 fold change is inactive: 0.013 in [15] and inactive: -0.022 in [16].
On to MTMR8 (UniProt Q96EF0), for which the log2 fold change in the test with erlotinib is inactive: -0.065; in test [2], inactive: -0.317; in [4] it was inactive: -0.01; with ibrutinib, inactive: 0.023; in [11], inactive: 0.015; in test [13], inactive: 0.162.
For MTERF2 (UniProt Q49AM1), the log2 fold change is inactive: 0.093 in the test with erlotinib; inactive: 0.058 in [2]; inactive: -0.045 in test [5]; inactive: 0.053 in test [7]; inactive: 0.108 in [8]; inactive: 0.037 with IRAK-1-4 Inhibitor I. For the same target, the log2 fold change with ralimetinib was inactive: 0.082; in test [10] it was inactive: -0.101; in test [11], inactive: -0.035; in [13] it was inactive: 0.049; in [14] it was inactive: 0.067; in test [15], inactive: 0.095.
In the case of MTIF3 (UniProt Q9H2K0), the log2 fold change was inactive: -0.037 with erlotinib; inactive: -0.139 in [1]; inactive: 0.007 in [2]; inactive: 0.006 in test [3]; inactive: -0.012 in test [4]; inactive: -0.025 in test [5]. Further, the log2 fold change was inactive: -0.05 in test [6]; inactive: -0.044 with IRAK-1-4 Inhibitor I; inactive: 0.02 in the test with ibrutinib; inactive: -0.001 in test [9]; inactive: -0.031 in the test with ralimetinib; inactive: -0.023 in test [10]. In addition, the log2 fold change in test [11] is inactive: -0.088; in [12] it was inactive: -0.049; in [13], inactive: 0.011; in test [15] it was inactive: -0.019; in [16], inactive: -0.049.
As for MSL2 (UniProt Q9HCI7), the log2 fold change in the test with erlotinib was inactive: -0.026; in [1], inactive: -0.128; in [2] it was inactive: 0.196; in test [3] it was inactive: -0.022; in test [5] it was inactive: 0.086; in test [6] it was inactive: 0.04. The log2 fold change in [7] was inactive: 0; in test [8], inactive: -0.084; with IRAK-1-4 Inhibitor I, inactive: -0.112; with ralimetinib, inactive: 0.039; in [10], inactive: 0.092; in test [11], inactive: -0.189. For the same target, the log2 fold change in test [12] was inactive: -0.118; in test [14] it was inactive: 0.066; in test [15] it was inactive: 0.139.
With MT-CO3 (UniProt P00414), the log2 fold change in test [1] is inactive: 0.034; in test [3], inactive: 0.062; in test [6], inactive: 0.049; in test [13] it was inactive: 0.149.

Values taken from the supplement of paper PMC10849652.
